According to PMC8211909:
Results are given in words; binding and its absence hold for the method and conditions named. In cells and extracts the contact can be indirect. Some results given as binding are weak or reduced against the parent protein; the word gives no strength.

Assays:
[1] = biological target: T1, Flotillin-2 (mouse (endogenous in mouse liver and spleen)) (UniProt Q60634); assay: co-IP; endogenous proteins of mouse liver (lipid raft; 3-month-old wild type and Wwox heterozygous mice; BALB/c mice given Zfra4-10 and/or WWOX7-21 peptide and 4T1 cells), specific WWOX antibodies
T1 sequence: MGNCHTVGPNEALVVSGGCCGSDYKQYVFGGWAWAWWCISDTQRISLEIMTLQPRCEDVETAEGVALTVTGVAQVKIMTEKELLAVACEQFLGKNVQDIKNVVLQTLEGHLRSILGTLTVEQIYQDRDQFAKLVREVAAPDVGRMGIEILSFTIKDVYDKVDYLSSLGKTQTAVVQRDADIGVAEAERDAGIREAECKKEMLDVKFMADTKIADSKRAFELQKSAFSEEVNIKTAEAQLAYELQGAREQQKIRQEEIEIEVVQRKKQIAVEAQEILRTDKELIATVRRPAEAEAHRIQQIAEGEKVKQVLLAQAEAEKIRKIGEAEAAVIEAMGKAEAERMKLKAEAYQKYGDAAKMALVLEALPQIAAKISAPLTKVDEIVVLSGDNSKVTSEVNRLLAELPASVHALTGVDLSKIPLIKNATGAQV

[2] = biological target: T2, pY287-WWOX (mouse (endogenous in mouse liver)) (UniProt Q91WL8); assay: as above
T2 sequence (chain, phosphotyrosine at 287): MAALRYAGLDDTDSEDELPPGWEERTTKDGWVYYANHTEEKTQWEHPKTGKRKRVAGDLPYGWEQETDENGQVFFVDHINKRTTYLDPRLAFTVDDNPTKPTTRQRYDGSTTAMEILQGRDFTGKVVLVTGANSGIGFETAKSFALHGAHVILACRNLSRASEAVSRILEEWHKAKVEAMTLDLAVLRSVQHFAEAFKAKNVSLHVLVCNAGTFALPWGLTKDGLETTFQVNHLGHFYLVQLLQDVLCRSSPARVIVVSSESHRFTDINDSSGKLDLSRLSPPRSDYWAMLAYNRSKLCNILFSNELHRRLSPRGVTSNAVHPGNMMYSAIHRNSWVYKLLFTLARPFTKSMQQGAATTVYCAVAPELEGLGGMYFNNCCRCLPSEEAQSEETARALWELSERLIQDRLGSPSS

[3] = biological target: T1, Flotillin-2 (mouse (endogenous in mouse liver and spleen)); assay: co-IP; endogenous proteins of spleen of BALB/c mice given Zfra4-10 and/or WWOX7-21 or WWOX7-11 peptide and 4T1 cells
[4] = biological target: T3, pY33-WWOX (mouse (endogenous in mouse liver and spleen)) (UniProt Q91WL8); assay: as above
T3 sequence (chain, phosphotyrosine at 33): T2 sequence (chain, phosphotyrosine at 287)

[5] = biological target: T4, WWOX (endogenous, phosphorylation state not told) (mouse (endogenous in mouse organs)) (UniProt Q91WL8); assay: co-IP; endogenous proteins of mouse liver (lipid raft; 3-month-old wild type and Wwox heterozygous mice; BALB/c mice given Zfra4-10 and/or WWOX7-21 peptide and 4T1 cells), specific WWOX antibodies
T4 sequence: T2 sequence (chain, phosphotyrosine at 287)

[6] = biological target: T4, WWOX (endogenous, phosphorylation state not told) (mouse (endogenous in mouse organs)); assay: co-IP; endogenous proteins of spleen of BALB/c mice given Zfra4-10 and/or WWOX7-21 or WWOX7-11 peptide and 4T1 cells

Measured: binding

B1: Hyal-2 (protein, UniProt O35632 21-448)
chain: GELKPTAPPIFTGRPFVVAWNVPTQECAPRHKVPLDLRAFDVKATPNEGFFNQNITTFYYDRLGLYPRFDAAGTSVHGGVPQNGSLCAHLPMLKESVERYIQTQEPGGLAVIDWEEWRPVWVRNWQEKDVYRQSSRQLVASRHPDWPSDRVMKQAQYEFEFAARQFMLNTLRYVKAVRPQHLWGFYLFPDCYNHDYVQNWESYTGRCPDVEVARNDQLAWLWAESTALFPSVYLDETLASSVHSRNFVSFRVREALRVAHTHHANHALPVYVFTRPTYTRGLTGLSQVDLISTIGESAALGSAGVIFWGDSEDASSMETCQYLKNYLTQLLVPYIVNVSWATQYCSWTQCHGHGRCVRRNPSANTFLHLNASSFRLVPGHTPSEPQLRPEGQLSEADLNYLQKHFRCQCYLGWGGEQCQRNYKGAAGN
binds: [1] | [2] | [3] | [4]

B2: Flotillin-2 (protein, UniProt Q60634 1-428)
chain: T1 sequence
binds: [5] | [6]
